{
  "source": "patent US20170119824A1",
  "about": "“A METHOD FOR THE TREATMENT OF GLIOBLASTOMA WITH WHARTON JELLY-MESENCHYMAL STEM CELLS (WJ-MSC) DERIVED FROM HUMAN UMBILICAL CORD” (priority 2014, published 2017)",
  "tested_on": "glioblastoma tumor sample collected from patient",
  "experiment": "Oncoprint explant tumor culture model, drug sensitivity test with H&E, Ki67 and caspase staining",
  "type": "cell-based, human",
  "conditions": "glioma tumor samples in vitro, explant culture in artificial tumor microenvironment",
  "excerpt": "According to one embodiment herein, Ocoprint® an explants tumor culture model to identify the anti-tumor effect of commonly used chemotherapeutics agents as well as Wharton's jelly derived mesenchymal stem cells on gliomas samples. In the laboratory, a tumor microenvironment similar to the body or physiological environment is created artificially in a dish. The tumor sample collected from patient is placed in this micro-environment in dish. Different anticancer agents including the mesenchymal stem cells derived from umbilical cord are applied on the tumor in the micro-environment. This mimics the application of these anti-cancer agents against the tumor when the tumor is in the human body. Simultaneously a control sample is maintained without any treatment or application of anti-cancer agents. After a specific treatment time or incubation the tumor samples are collected from the microenvironment and are subjected to a set of laboratory tests. […] The tests also reveal that the anti-cancer agents are able to kill tumor cells, reduce the number of tumor cells or limit the growth of tumor cells or the anti-cancer agent is converting the aggressively growing tumor cells to a programmed cell death mode.\nThe tests which are applied for testing effect of anti-cancer agents on the tumor are 1) Hematoxylin and eosin staining (H & E staining), 2) Ki67 is staining and 3) Caspase staining. […]",
  "note": "For at least one compound, name, drawing or mass did not settle the structure.",
  "data": [
    {"smiles": "Cn1nnc2c(C(N)=O)ncn2c1=O", "note": "[temzolamide, Temozolomide]", "values": [
      {"measurement": "Oncoprint sensitivity report: response of glioma samples (responders / non-responders)", "result": "have not responded"}
    ]}
  ]
}
